{"sequences": {"note": "By UniProt entry, the sequences of proteins in these tests, tags left out. Residues count along the entry.", "UniProt P24394, residues 26-232": "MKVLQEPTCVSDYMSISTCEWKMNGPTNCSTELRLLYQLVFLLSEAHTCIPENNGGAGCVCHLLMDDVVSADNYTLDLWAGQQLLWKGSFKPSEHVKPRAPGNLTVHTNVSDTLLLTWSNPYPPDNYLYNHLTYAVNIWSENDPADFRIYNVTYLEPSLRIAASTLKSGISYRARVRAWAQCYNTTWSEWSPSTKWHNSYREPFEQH"}, "source": "patent CN118105485A", "binders": {"B1": {"name": "抗人IL-4Rα单克隆抗体 (antibody, human IgG4 S228P, kappa, V domains shown)", "VH": "EVQLVESGGGLVQPGGSLRLSCAASGFTFSDYGMHWVRQAPGKGLEWVSYISSGSTTIYYADTVKGRFTISRDNAKNSLYLQMNSLRAEDTAVYYCARISTVVAKRYAMDYWGQGTLVTVSS", "VL": "DIQMTQSPSSLSASVGDRVTITCRASQDISNYLNWYQQKPGKAPKLLIYYTSRLHSGVPSRFSGSGSGTDFTLTISSLQPEDIATYYCQQINALPFTFGQGTKLEIKR"}}, "key": {"Human IL-4R (human) [1]": {"biological_target": "Human IL-4R (human) (UniProt P24394)", "assay": "binding activity assay of formulation samples S1-S9 etc. after 40℃ for 1 month (method not described; values in Table 3.4, not shown)"}, "Human IL-4R (human) [2]": {"biological_target": "Human IL-4R (human) (UniProt P24394)", "assay": "binding activity assay of optimised formulation samples (O series) after 40℃ for 1 month (method not described; values in Table 4.4, not shown)"}}, "note": "No constants are given. Whether binding was seen depends on the method and setting. Some binding calls cover weakened binding; strength is not graded here."}
{"binder": "B1", "values": [{"measurement": "binding", "setting": "Human IL-4R (human) [1]", "value": "binds"}, {"measurement": "binding", "setting": "Human IL-4R (human) [2]", "value": "binds"}]}
